Assay results: the supplement of paper PMC8728848
This is one part of the list.

Assays:
Experiment in all cases: glycan array binding signal (z-score within array); higher = stronger binding
Details in all cases: glycan notation: IUPAC condensed, linker removed
Fuc(a1-2)Gal = target: Fuc(a1-2)Gal
Outline: (§1)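 Arrays were curated from the Consortium for Functional Glycomics database, 3228 in total, and kept only where the protein sequence was available. Binding is expressed as a within-array Z-score. This score was averaged across arrays of the same protein sequence at different concentrations or buffers and across linkers, and negative values can be read as non-binding.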

Fuc(a1-2)Gal(b1-3)GalNAc = target: Fuc(a1-2)Gal(b1-3)GalNAc
Outline: as §1

[1] = target: Fuc(a1-2)Gal(b1-3)GalNAc(a1-3)[Fuc(a1-2)]Gal(b1-4)Glc
Outline: as §1

[2] = target: Fuc(a1-2)Gal(b1-3)GalNAc(a1-3)[Fuc(a1-2)]Gal(b1-4)GlcNAc
Outline: as §1

[3] = target: Fuc(a1-2)Gal(b1-3)GalNAc(b1-3)Gal
Outline: as §1

[4] = target: Fuc(a1-2)Gal(b1-3)GalNAc(b1-3)Gal(a1-4)Gal(b1-4)Glc
Outline: as §1

[5] = target: Fuc(a1-2)Gal(b1-3)GalNAc(b1-4)[Neu5Ac(a2-3)]Gal(b1-4)Glc
Outline: as §1

Fuc(a1-2)Gal(b1-3)GlcNAc = target: Fuc(a1-2)Gal(b1-3)GlcNAc
Outline: as §1

[6] = target: Fuc(a1-2)Gal(b1-3)GlcNAc(b1-2)Man(a1-3)[Fuc(a1-2)Gal(b1-3)GlcNAc(b1-2)Man(a1-6)]Man(b1-4)GlcNAc(b1-4)GlcNAc
Outline: as §1

[7] = target: Fuc(a1-2)Gal(b1-3)GlcNAc(b1-2)Man(a1-3)[Fuc(a1-2)Gal(b1-3)GlcNAc(b1-2)Man(a1-6)]Man(b1-4)GlcNAc(b1-4)[Fuc(a1-6)]GlcNAc
Outline: as §1

[8] = target: Fuc(a1-2)Gal(b1-3)GlcNAc(b1-3)Gal(b1-4)Glc
Outline: as §1

[9] = target: Fuc(a1-2)Gal(b1-3)GlcNAc(b1-3)GalNAc
Outline: as §1

[10] = target: Fuc(a1-2)Gal(b1-3)GlcNAc(b1-3)[Fuc(a1-2)Gal(b1-3)GlcNAc(b1-6)]GalNAc
Outline: as §1

[11] = target: Fuc(a1-2)Gal(b1-3)GlcNAc(b1-3)[Gal(b1-4)GlcNAc(b1-6)]Gal(b1-4)Glc
Outline: as §1

[12] = target: Fuc(a1-2)Gal(b1-3)GlcNAc(b1-3)[Neu5Ac(a2-6)Gal(b1-4)GlcNAc(b1-6)]Gal(b1-4)Glc
Outline: as §1

[13] = target: Fuc(a1-2)Gal(b1-3)GlcNAc6S
Outline: as §1

[14] = target: Fuc(a1-2)Gal(b1-3)[Fuc(a1-4)]GlcNAc
Outline: as §1

[15] = target: Fuc(a1-2)Gal(b1-3)[Fuc(a1-4)]GlcNAc(b1-2)Man(a1-3)[Fuc(a1-2)Gal(b1-3)[Fuc(a1-4)]GlcNAc(b1-2)Man(a1-3)]Man(b1-4)GlcNAc(b1-4)GlcNAc
Outline: as §1

[16] = target: Fuc(a1-2)Gal(b1-3)[Fuc(a1-4)]GlcNAc(b1-2)Man(a1-3)[Fuc(a1-2)Gal(b1-3)[Fuc(a1-4)]GlcNAc(b1-2)Man(a1-6)]Man(b1-4)GlcNAc(b1-4)[Fuc(a1-6)]GlcNAc(b1-4)[Fuc(a1-6)]GlcNAc
Outline: as §1

[17] = target: Fuc(a1-2)Gal(b1-3)[Fuc(a1-4)]GlcNAc(b1-3)[Fuc(a1-3)[Gal(b1-4)]GlcNAc(b1-6)]Gal(b1-4)Glc
Outline: as §1

[18] = target: Fuc(a1-2)Gal(b1-3)[Fuc(a1-4)]GlcNAc(b1-3)[Gal(b1-4)GlcNAc(b1-6)]Gal(b1-4)Glc
Outline: as §1

Fuc(a1-2)Gal(b1-4)Glc = target: Fuc(a1-2)Gal(b1-4)Glc
Outline: as §1

Fuc(a1-2)Gal(b1-4)Glc6S = target: Fuc(a1-2)Gal(b1-4)Glc6S
Outline: as §1

Fuc(a1-2)Gal(b1-4)GlcNAc = target: Fuc(a1-2)Gal(b1-4)GlcNAc
Outline: as §1

[19] = target: Fuc(a1-2)Gal(b1-4)GlcNAc(b1-2)Man
Outline: as §1

[20] = target: Fuc(a1-2)Gal(b1-4)GlcNAc(b1-2)Man(a1-3)[Fuc(a1-2)Gal(b1-4)GlcNAc(b1-2)Man(a1-6)]Man(b1-4)GlcNAc(b1-4)GlcNAc
Outline: as §1

[21] = target: Fuc(a1-2)Gal(b1-4)GlcNAc(b1-2)Man(a1-3)[Fuc(a1-2)Gal(b1-4)GlcNAc(b1-2)Man(a1-6)]Man(b1-4)GlcNAc(b1-4)[Fuc(a1-6)]GlcNAc
Outline: as §1

[22] = target: Fuc(a1-2)Gal(b1-4)GlcNAc(b1-2)[Fuc(a1-2)Gal(b1-4)GlcNAc(b1-4)]Man(a1-3)[Fuc(a1-2)Gal(b1-4)GlcNAc(b1-2)Man(a1-6)]Man(b1-4)GlcNAc(b1-4)GlcNAc
Outline: as §1

[23] = target: Fuc(a1-2)Gal(b1-4)GlcNAc(b1-3)Gal(b1-4)GlcNAc
Outline: as §1

[24] = target: Fuc(a1-2)Gal(b1-4)GlcNAc(b1-3)Gal(b1-4)GlcNAc(b1-2)Man(a1-3)[Fuc(a1-2)Gal(b1-4)GlcNAc(b1-3)Gal(b1-4)GlcNAc(b1-2)Man(a1-6)]Man(b1-4)GlcNAc(b1-4)GlcNAc
Outline: as §1

[25] = target: Fuc(a1-2)Gal(b1-4)GlcNAc(b1-3)Gal(b1-4)GlcNAc(b1-3)Gal(b1-4)GlcNAc
Outline: as §1

[26] = target: Fuc(a1-2)Gal(b1-4)GlcNAc(b1-3)GalNAc
Outline: as §1

[27] = target: Fuc(a1-2)Gal(b1-4)GlcNAc(b1-3)[Fuc(a1-2)Gal(b1-4)GlcNAc(b1-6)]GalNAc
Outline: as §1

[28] = target: Fuc(a1-2)Gal(b1-4)GlcNAc(b1-3)[Fuc(a1-3)[Gal(b1-4)]GlcNAc(b1-6)]Gal(b1-4)Glc
Outline: as §1

[29] = target: Fuc(a1-2)Gal(b1-4)GlcNAc(b1-6)GalNAc
Outline: as §1

[30] = target: Fuc(a1-2)Gal(b1-4)GlcNAc6S
Outline: as §1

[31] = target: Fuc(a1-2)Gal(b1-4)[Fuc(a1-3)]GlcNAc
Outline: as §1

[32] = target: Fuc(a1-2)Gal(b1-4)[Fuc(a1-3)]GlcNAc(b1-2)Man(a1-3)[Fuc(a1-2)Gal(b1-4)[Fuc(a1-3)]GlcNAc(b1-2)Man(a1-6)]Man(b1-4)GlcNAc(b1-4)[Fuc(a1-6)]GlcNAc
Outline: as §1

[33] = target: Fuc(a1-2)Gal(b1-4)[Fuc(a1-3)]GlcNAc(b1-2)[Fuc(a1-2)Gal(b1-4)[Fuc(a1-3)]GlcNAc(b1-4)]Man(a1-3)[Fuc(a1-2)Gal(b1-4)[Fuc(a1-3)]GlcNAc(b1-2)Man(a1-6)]Man(b1-4)GlcNAc(b1-4)GlcNAc
Outline: as §1

[34] = target: Fuc(a1-2)Gal(b1-4)[Fuc(a1-3)]GlcNAc(b1-3)Gal(b1-4)[Fuc(a1-3)]GlcNAc
Outline: as §1

[35] = target: Fuc(a1-2)Gal(b1-4)[Fuc(a1-3)]GlcNAc(b1-3)Gal(b1-4)[Fuc(a1-3)]GlcNAc(b1-3)Gal(b1-4)[Fuc(a1-3)]GlcNAc
Outline: as §1

[36] = target: Fuc(a1-2)Gal(b1-4)[Fuc(a1-3)]GlcNAc(b1-3)GalNAc
Outline: as §1

[37] = target: Fuc(a1-2)Gal(b1-4)[Fuc(a1-3)]GlcNAc(b1-3)[Neu5Ac(a2-6)Gal(b1-4)GlcNAc(b1-6)]Gal(b1-4)Glc
Outline: as §1

[38] = target: Fuc(a1-2)Gal3S(b1-4)GlcNAc
Outline: as §1

[39] = target: Fuc(a1-2)Gal6S(b1-3)GlcNAc
Outline: as §1

B1: MXA PilAct-eGFP (Myxococcus xanthus), Q59589 (protein)
chain: MRVSRFNPRNRGFTLIELMIVVAIIGILAAIAIPNFIKFQARSKQSEAKTNLKALYTAQKSFFSEKDRYSDFANEIGFAPERGNRYGYRVSAAAGDCEVRNAADLPVPAAGVPCISNDSFRFGANSAIDDPTPVVARFVPQGAAGWNTTLGVQPTIADCPNCNFFAGARGNADNEATFDDWVIAGFEGSGQVGPCSEAGNVASGTPYNTRNDVACDGAAQ
glycan array binding signal (z-score) (Fuc(a1-2)Gal): -0.674 | glycan array binding signal (z-score) (Fuc(a1-2)Gal(b1-3)GalNAc): 0.064 | glycan array binding signal (z-score) [1]: 0.469 | glycan array binding signal (z-score) [2]: 0.443 | glycan array binding signal (z-score) [3]: -1.19 | glycan array binding signal (z-score) [4]: -0.446 | glycan array binding signal (z-score) [5]: 0.117 | glycan array binding signal (z-score) (Fuc(a1-2)Gal(b1-3)GlcNAc): -0.785 | glycan array binding signal (z-score) [6]: -0.621 | glycan array binding signal (z-score) [7]: 0.257 | glycan array binding signal (z-score) [8]: 0.066 | glycan array binding signal (z-score) [9]: -0.348 | glycan array binding signal (z-score) [10]: -0.015 | glycan array binding signal (z-score) [11]: -0.272 | glycan array binding signal (z-score) [12]: -0.4 | glycan array binding signal (z-score) [13]: 0.118 | glycan array binding signal (z-score) [14]: -0.852 | glycan array binding signal (z-score) [15]: 0.331 | glycan array binding signal (z-score) [16]: -0.196 | glycan array binding signal (z-score) [17]: -0.294 | glycan array binding signal (z-score) [18]: -0.394 | glycan array binding signal (z-score) (Fuc(a1-2)Gal(b1-4)Glc): 0.596 | glycan array binding signal (z-score) (Fuc(a1-2)Gal(b1-4)Glc6S): -0.702 | glycan array binding signal (z-score) (Fuc(a1-2)Gal(b1-4)GlcNAc): 0.125 | glycan array binding signal (z-score) [19]: -1.78 | glycan array binding signal (z-score) [20]: 2.18 | glycan array binding signal (z-score) [21]: -0.851 | glycan array binding signal (z-score) [22]: 2.42 | glycan array binding signal (z-score) [23]: 0.643 | glycan array binding signal (z-score) [24]: 0.216 | glycan array binding signal (z-score) [25]: 2.63 | glycan array binding signal (z-score) [26]: -0.527 | glycan array binding signal (z-score) [27]: -0.47 | glycan array binding signal (z-score) [28]: 0.299 | glycan array binding signal (z-score) [29]: -0.317 | glycan array binding signal (z-score) [30]: -0.023 | glycan array binding signal (z-score) [31]: 0.23 | glycan array binding signal (z-score) [32]: -0.459 | glycan array binding signal (z-score) [33]: 0.084 | glycan array binding signal (z-score) [34]: 0.603 | glycan array binding signal (z-score) [35]: -0.292 | glycan array binding signal (z-score) [36]: -0.56 | glycan array binding signal (z-score) [37]: 0.678 | glycan array binding signal (z-score) [38]: -0.55 | glycan array binding signal (z-score) [39]: 0.631
